Test results: article PMC7316351, “Cancer-associated mutations in the iron-sulfur domain of FANCJ affect G-quadruplex metabolism”
Positions count from the first letter of the chain named. Construct, isoform or probe ends are uncertain for at least one entry. At least one verdict rests on a figure or table, not on a statement of the authors. Tags and fusion partners may be left off the protein sequences shown.

Experiments:
Assay in all cases: EMSA
Conditions in all cases: 10/40/70 nM protein, 5 nM DNA, no ATP; EMSA: 15 mM Na-phosphate pH 7.4, 45 mM NaCl, 3% glycerol, 40 mM Tris-HCl pH 7.4, 25 mM KCl, 100 ng/ul BSA, 2 mM DTT, 0.1 mM EDTA; 30 min at 25 C; 5% PAGE in 1x TBE; recombinant protein; protein details: N-terminal Flag; label: 5'-FAM on strand 1
FANCJ WT = target: T1, FANCJ WT (UniProt Q9BX63)
T1 sequence (looked up, limits assumed): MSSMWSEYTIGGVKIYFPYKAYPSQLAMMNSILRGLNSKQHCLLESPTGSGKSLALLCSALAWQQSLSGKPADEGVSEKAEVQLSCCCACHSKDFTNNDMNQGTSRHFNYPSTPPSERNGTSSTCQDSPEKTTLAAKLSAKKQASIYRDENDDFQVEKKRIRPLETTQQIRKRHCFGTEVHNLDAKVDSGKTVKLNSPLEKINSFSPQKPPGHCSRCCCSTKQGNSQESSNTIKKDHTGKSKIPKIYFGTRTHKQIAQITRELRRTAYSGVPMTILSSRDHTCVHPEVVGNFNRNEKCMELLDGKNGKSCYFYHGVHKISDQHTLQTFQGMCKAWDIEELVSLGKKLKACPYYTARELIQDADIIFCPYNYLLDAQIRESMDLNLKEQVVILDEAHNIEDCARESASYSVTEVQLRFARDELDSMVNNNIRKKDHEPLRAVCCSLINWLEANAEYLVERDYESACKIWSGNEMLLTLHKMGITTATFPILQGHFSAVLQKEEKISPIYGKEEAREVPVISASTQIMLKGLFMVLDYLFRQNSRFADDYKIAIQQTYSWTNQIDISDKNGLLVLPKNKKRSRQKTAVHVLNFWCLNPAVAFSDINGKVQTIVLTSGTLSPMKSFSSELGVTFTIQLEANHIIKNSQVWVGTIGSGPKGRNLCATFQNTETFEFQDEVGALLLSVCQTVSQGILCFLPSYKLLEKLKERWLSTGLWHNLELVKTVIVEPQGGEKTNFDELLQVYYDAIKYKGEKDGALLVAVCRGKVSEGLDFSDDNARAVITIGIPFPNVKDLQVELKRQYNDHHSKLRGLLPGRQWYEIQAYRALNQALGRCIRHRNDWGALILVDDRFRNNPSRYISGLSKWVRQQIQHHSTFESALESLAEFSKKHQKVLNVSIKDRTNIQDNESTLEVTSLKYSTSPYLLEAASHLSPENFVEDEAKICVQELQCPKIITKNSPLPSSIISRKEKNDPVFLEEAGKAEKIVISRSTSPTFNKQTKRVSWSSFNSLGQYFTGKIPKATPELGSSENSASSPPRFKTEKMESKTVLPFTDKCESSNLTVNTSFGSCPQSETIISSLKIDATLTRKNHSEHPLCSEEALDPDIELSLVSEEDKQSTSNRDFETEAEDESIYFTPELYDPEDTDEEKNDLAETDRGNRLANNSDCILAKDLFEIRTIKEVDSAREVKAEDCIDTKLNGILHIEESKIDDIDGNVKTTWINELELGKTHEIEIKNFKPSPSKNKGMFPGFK

FANCJ L340F = target: T2, FANCJ L340F (UniProt Q9BX63)
T2 sequence (looked up, limits assumed): T1 sequence (looked up, limits assumed) with L340F

FANCJ C283S = target: T3, FANCJ C283S (UniProt Q9BX63)
T3 sequence (looked up, limits assumed): T1 sequence (looked up, limits assumed) with C283S

FANCJ C283R = target: T4, FANCJ C283R (UniProt Q9BX63)
T4 sequence (looked up, limits assumed): T1 sequence (looked up, limits assumed) with C283R

FANCJ A349P = target: T5, FANCJ A349P (UniProt Q9BX63)
T5 sequence (looked up, limits assumed): T1 sequence (looked up, limits assumed) with A349P

Measured: binding result

GACGCTGCCGAATTCTACCAGTGCCTTGCTAGGACATCTTTG / TTTTTTTTTTTTTTTTTTTTTTTTTTTTTTTTTTTTGGTAGAATTCGGCAGCGT [Y-structure (XO1/sDO1)]
binds: all assays above
